# Source: PubChem BioAssay AID2551 (National Center for Advancing Translational Sciences (NCATS), 2010)
# Chains of the proteins cited; added tags and fusions are not shown. Lines headed by an entry give the natural chain unless they say otherwise; changes in a name come on top.
# UniProt P51450: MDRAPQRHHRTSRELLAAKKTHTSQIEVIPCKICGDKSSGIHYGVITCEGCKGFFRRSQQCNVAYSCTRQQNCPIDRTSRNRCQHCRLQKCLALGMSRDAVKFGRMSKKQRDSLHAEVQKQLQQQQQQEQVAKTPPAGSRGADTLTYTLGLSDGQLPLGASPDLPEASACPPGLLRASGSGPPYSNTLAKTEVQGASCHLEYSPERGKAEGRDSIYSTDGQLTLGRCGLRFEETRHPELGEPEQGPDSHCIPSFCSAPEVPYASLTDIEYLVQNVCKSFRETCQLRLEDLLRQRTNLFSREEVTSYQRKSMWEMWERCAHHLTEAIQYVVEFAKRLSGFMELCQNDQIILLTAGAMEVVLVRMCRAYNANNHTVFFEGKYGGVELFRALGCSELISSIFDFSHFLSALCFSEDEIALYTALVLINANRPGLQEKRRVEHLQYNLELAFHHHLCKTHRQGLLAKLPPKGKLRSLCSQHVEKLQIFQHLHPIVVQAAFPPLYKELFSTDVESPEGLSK
# The whole screen tested about 310,000 compounds, of which about 17,000 (5.5%) were called active. The inconclusive results got no clear call from the source; some entries with a clear call stand among them for comparison. Calls come from the whole dose curve; as a rule, active = well fitted inhibition curve with a large enough effect; inconclusive = small, poorly fitted or top-dose-only effect, or effect the other way; inactive = no such curve, though single readings can be large or run the other way. Potencies beside an inconclusive call are fits to weak or partial responses and may not hold up.
# Target: Nuclear receptor ROR-gamma (Mus musculus) (UniProt P51450)
# Test: qHTS for inhibitors of ROR gamma transcriptional activity; note: nearly all actives have a fitted effect of over 60% in size
# Conditions: Drosophila S2 Gal4-RORgamma UAS-luciferase reporter, 20 h; activity change, negative = inhibition: at 53.6 µM (top of the series)
# Procedure, shortened: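 In this cell-based reporter format, copper sulfate (700 uM final) drives Gal4–ROR gamma fusion expression from a metallothionein promoter in Drosophila Schneider cells; compounds preincubated 1 hr, reporter read after 20 hr at ambient temperature.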
# % is set by controls: 0 for no effect and ±100 for the full control effect; potency is the fitted concentration of half-maximal effect.
Structure (SMILES),Potency,"activity change, negative = inhibition"
O=C(Cn1cnc2ccccc21)Nc1cccc([N+](=O)[O-])c1,"inconclusive: 25.1 µM [inhibitor, single point]",
CC(=O)c1cccc(NC(=O)CSCc2ccccc2)c1,"inconclusive: 0.794 µM [activator, full curve]",
CCC1(c2ccc(O)cc2)NC(=O)N(C)C1=O (stereo not drawn),,inactive: -0.494%
C=C(CCC(=O)c1ccccc1)C(=O)c1ccccc1,active: 12.6 µM,
COc1cc(NC(=S)NCc2cccs2)cc(OC)c1,active: 5.01 µM,
O=S(=O)(Nc1ccc(Cc2ccncc2)cc1)c1cccs1,"inconclusive: 15.8 µM [activator, single point]",
CCOC(=O)c1sc(NC(=O)c2ccc(Cl)s2)cc1C,"inconclusive: 0.501 µM [activator, full curve]",
Fc1ccc(C2CCCN2Cc2nc(Cc3ccccc3)no2)cc1 (stereo not drawn),"inconclusive: 11.2 µM [activator, single point]",
Cc1ccc(Nc2c(-c3ccccn3)nc3ccc(C)cn23)cc1,active: 12.6 µM,
CCOC(=O)C1=C(C)NC(=S)NC1c1ccc(C)s1 (stereo not drawn),active: 8.91 µM,
COc1ccc(C(=O)CN2C(=O)COc3ccccc32)cc1,,inactive: 41.9%
COc1ccc(C(=O)NC(=S)NNC(=O)c2c(-c3ccccc3)noc2C)cc1OC,active: 3.98 µM,
c1cncc(CNc2cccc(-c3nc4ccccc4[nH]3)c2)c1,"inconclusive: 1.26 µM [activator, partial curve]",
CCN(CCN(C)C)C(=O)C1CCN(S(=O)(=O)c2c(C)noc2/C=C/c2ccccc2F)CC1,"inconclusive: 35.5 µM [inhibitor, single point]",
COc1cc(CCC(=O)Nc2sccc2C#N)cc(OC)c1OC,"inconclusive: 35.5 µM [activator, single point]",
O=C(OC(C(=O)NC1CCCCC1)c1ccccc1)c1ccco1 (stereo not drawn),"inconclusive: 35.5 µM [activator, single point]",
C/C=C/c1ccc(OCC(=O)Nc2ccncc2)c(OC)c1,"inconclusive: 35.5 µM [activator, single point]",
COc1ccc(S(=O)(=O)N2CCOCC2)cc1NC(=O)CSc1n[nH]c(C(C)C)n1,,inactive: -19.4%
CC(C)N(Cc1nc(-c2ccccc2)no1)C(=O)c1ccc(Cl)cc1,"inconclusive: 35.5 µM [activator, single point]",
O=C(NC1=NCCS1)c1ccc(Cl)c(S(=O)(=O)N2CCCCCC2)c1,"inconclusive: 35.5 µM [inhibitor, single point]",
CCOC(=O)c1ccc(NC(=S)NCc2ccco2)cc1,active: 10 µM,
O=C(CSc1ncnc2nc[nH]c12)N1CCN(c2ccc(Cl)cc2)CC1,"inconclusive: 35.5 µM [activator, single point]",
Cc1cc(C)c(C(=O)COc2cccnc2[N+](=O)[O-])cc1C,"inconclusive: 22.4 µM [inhibitor, single point]",
O=C(CCCO)c1ccc2c(c1)OCCO2,,inactive: -11.5%

Structure (SMILES),Potency,"activity change, negative = inhibition"
CNc1nc2c3ccccc3n(C(C)=O)c2s1,"inconclusive: 22.4 µM [inhibitor, single point]",
Cc1ccc2occ(/C=N/NC(=O)c3ccccc3O)c(=O)c2c1,,inactive: -23.4%
O=C(NNS(=O)(=O)c1ccccc1)c1cc2cc3ccccc3nc2s1,"inconclusive: 6.31 µM [activator, single point]",
O=[N+]([O-])c1ccc(-c2ccc(/C=N/Nc3nc(N4CCCC4)nc(N4CCCC4)n3)o2)cc1,"inconclusive: 6.31 µM [inhibitor, single point]",
O=C(OCc1nc2ccccc2s1)C1CCN(C2=NS(=O)(=O)c3ccccc32)CC1,"inconclusive: 14.1 µM [activator, partial curve, poor fit]",
CCOC(=O)CNC=C(C(=O)OCC)C(=O)OCC,,inactive: -15.5%
CC(C)C(=O)N1CCN(c2ccccc2NC(=O)c2cc([N+](=O)[O-])ccc2N2CCOCC2)CC1,,inactive: 27%
S=C(NCCc1ccccc1)Nc1ccccc1Cl,active: 5.62 µM,
CCOc1ccccc1NC(=O)C(OC(=O)c1ccc(N(C)C)cc1)c1ccccc1 (stereo not drawn),,inactive: 5.45%
COc1ccc(-c2noc(CCC(=O)N3CCN(c4cccc(C(F)(F)F)c4)CC3)n2)cc1,"inconclusive: 15.8 µM [activator, single point]",
C/C(=N\Nc1nc(-c2cc(C)ccc2C)cs1)c1cc2ccccc2oc1=O,"inconclusive: 35.5 µM [inhibitor, single point]",
CCN(CC)CCSc1nnc2c3ccccc3n(CCc3ccccc3)c2n1,,inactive: -27.4%
Cc1ccc(NC(=S)NC(C)CCc2ccccc2)cc1C (stereo not drawn),active: 3.98 µM,
Cc1ccc(S(=O)(=O)Nc2ccc3c(c2)c2c(n3S(=O)(=O)c3ccc(C)cc3)CCCC2=O)cc1,"inconclusive: 3.55 µM [activator, partial curve]",
Clc1cccc2sc(N3CCN(c4ccccc4)CC3)nc12,"inconclusive: 35.5 µM [inhibitor, single point]",
CN(C)C(=O)CCSC(SCCC(=O)O)c1cccc(/C=C/c2ccc3ccc(Cl)cc3n2)c1 (stereo not drawn),"inconclusive: 17.8 µM [activator, partial curve]",
Clc1ccc(OCc2nc(-c3ccncc3)no2)cc1,"inconclusive: 5.62 µM [activator, full curve, poor fit]",
N#Cc1c(N)n(-c2ccccc2N)c2nc3ccccc3nc12,,inactive: -24.8%
CCc1ccc(C(=O)/C=C/c2cnn(C)c2C)s1,active: 5.62 µM,
COc1ccc(NC(=O)COc2ccc(N(C)S(=O)(=O)c3ccc(C)cc3)cc2)cc1,"inconclusive: 35.5 µM [activator, single point]",
CC(OC(=O)CCc1nc2ccccc2c(=O)[nH]1)C(=O)c1ccc(C(C)(C)C)cc1 (stereo not drawn),"inconclusive: 22.4 µM [inhibitor, single point]",
C[C@@H]1CCC[C@H](C)N1NC(=O)c1ccc(Cl)c(S(N)(=O)=O)c1,inactive,
C=C(C)CN(CC)C(=O)CSc1nc2ncc(Cl)cc2[nH]1,"inconclusive: 8.91 µM [activator, single point]",
COc1ccc2[nH]c(=O)c(CN(CC3CCCO3)S(=O)(=O)c3ccccc3)cc2c1 (stereo not drawn),"inconclusive: 12.6 µM [activator, partial curve]",
O=C(Nc1cccc(N=Cc2cc(Cl)cc(Br)c2O)c1)c1ccco1,"inconclusive: 11.2 µM [inhibitor, partial curve, poor fit]",

Structure (SMILES),Potency,"activity change, negative = inhibition"
COc1ccc(/C=C/C(=O)Oc2ccc(/C=N\NC(=O)c3ccc(F)cc3)cc2)cc1,"inconclusive: 35.5 µM [inhibitor, partial curve]",
COc1cccc(C(=O)Nc2nnc(SCC(=O)Nc3ccc(NC(C)=O)cc3)s2)c1,active: 11.2 µM,
O=C(N/N=C/c1cccc(OCc2ccccc2)c1)c1ccc(Br)cc1,"inconclusive: 1.26 µM [inhibitor, full curve, poor fit]",
CSc1ncc(C(=O)NCCCc2ccccc2)c(C)n1,"inconclusive: 14.1 µM [activator, partial curve]",
CCn1c(=S)sc2c(=O)n(-c3ccccc3)c(SCC(=O)NCc3ccco3)nc21,"inconclusive: 12.6 µM [activator, single point]",
CN(NS(=O)(=O)c1ccc(Cl)cc1)c1ncc(C(F)(F)F)cc1Cl,active: 2.24 µM,
COc1ccccc1/C=C1\SC(=S)N(C(C(=O)O)c2ccccc2)C1=O (stereo not drawn),,inactive: -2.34%
COc1ccc(CCNC(=S)Nc2ccc(OC)cc2)cc1,active: 3.55 µM,
O=C(NNc1ncnc2c1cnn2-c1ccccc1)c1cccs1,"inconclusive: 1.26 µM [inhibitor, full curve]",
c1ccc2c(c1)ncn2-c1ncnc2sc3c(c12)CCCC3,"inconclusive: 14.1 µM [inhibitor, partial curve]",
O=C(Cc1ccccc1)NCc1n[nH]c(=S)n1-c1ccc(Br)cc1,,inactive: -29.5%
COc1ccccc1/C(C)=N/NC(=O)c1nnn(-c2nonc2N)c1C(C)C,active: 7.08 µM,
CCS(=O)c1scc(-c2ccc(Cl)cc2)c1C#N (stereo not drawn),"inconclusive: 5.01 µM [activator, partial curve]",
CCN(CC)c1ccc(S(=O)(=O)Nc2cc(Cl)ccc2Cl)cc1NC(=S)NC(=O)C1CCCC1,active: 5.01 µM,
CCCCC(=O)Nc1ccccc1C(=O)OCC(=O)c1ccc2c(c1)OCCO2,"inconclusive: 10 µM [inhibitor, partial curve, poor fit]",
CC1CCN(CCCn2c(=S)[nH]c3ccc(N4CCOCC4)cc3c2=O)CC1,,inactive: 11.6%
Cc1ccccc1NC(=O)CC1SC(=O)N(c2ccccc2)C1=O (stereo not drawn),"inconclusive: 0.398 µM [inhibitor, partial curve, poor fit]",
CC(=O)Nc1cccc(/C(C)=N/Nc2nc3ccccc3s2)c1,"inconclusive: 10 µM [activator, partial curve]",
CCN(CC)CCOc1ccc2c(c1)C(=NNC(=O)c1ccccn1)c1cc(OCCN(CC)CC)ccc1-2,"inconclusive: 35.5 µM [inhibitor, single point]",
Cc1oc(-c2ccccc2F)nc1CN1CCC(C(=O)NC2CCCc3ccccc32)CC1 (stereo not drawn),"inconclusive: 31.6 µM [activator, single point]",
O=C(CCC1CCCCC1)NCCN1C2=NC[C@H](Cc3ccccc3)N2C[C@H]1Cc1ccc(O)cc1,,inactive: 16.8%
O=c1c2ccccc2[nH]c(=S)n1CCCn1ccnc1,,inactive: -5.64%
Nc1cc(C(=O)O)c(N)c2c1C(=O)c1ccccc1C2=O,"inconclusive: 17.8 µM [inhibitor, single point]",

# Of the compounds above, 3 have a COOH group.
Structure (SMILES),Potency,"activity change, negative = inhibition"
CN(C)C(=O)CCSC(SCCC(=O)O)c1cccc(/C=C/c2ccc3ccc(Cl)cc3n2)c1 (stereo not drawn),"inconclusive: 17.8 µM [activator, partial curve]",
COc1ccccc1/C=C1\SC(=S)N(C(C(=O)O)c2ccccc2)C1=O (stereo not drawn),,inactive: -2.34%
Nc1cc(C(=O)O)c(N)c2c1C(=O)c1ccccc1C2=O,"inconclusive: 17.8 µM [inhibitor, single point]",
